Taken from: PubChem BioAssay AID504784 (Drosophila RNAi Screening Center, 2011)
The screen tested about 17,000 reagents; this is a random part of those with a known target gene and a result. 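Each column is one replicate's B-score; the combined score over replicates was not deposited, so single values may mislead.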 Names joined by + are all predicted targets of the reagent. Reagent sequences are not shown.

Test: 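Genome-wide knock-down for genes giving too much or too little stored lipid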 (primary screen)
Cell system: Drosophila Kc167 embryonic cells
Knock-down reagent: long dsRNA against Drosophila genes, about 250 ng dsRNA per well
Duration: 4 days
Challenge: cells fed 400 µM oleic acid bound to BSA
Measurement: 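Microscope images give a droplet-to-nucleus area ratio, taken as log and converted to a screen-wide B-score; higher values mean greater lipid storage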
Scale: droplet/nuclear area B-score: higher = more stored lipid (overstorage)

predicted target | amplicon | droplet/nuclear area B-score, replicate 1 | droplet/nuclear area B-score, replicate 2 | droplet/nuclear area B-score, replicate 3
Osi8 (Osiris 8) | DRSC12277 | 2.67 | 2.36 | –
Fcp3C (Follicle cell protein 3C) | DRSC18665 | -0.0134 | -0.839 | –
CG30054 | DRSC05354 | 0.266 | -1.09 | –
PH4alphaNE2 (prolyl-4-hydroxylase-alpha NE2) | DRSC16544 | 1.33 | 0.0673 | –
CG32576 + UQCR-14 | DRSC19870 | 1.48 | 3.45 | –
CG9344 | DRSC04541 | -0.23 | 0.259 | –
CG4455 | DRSC01983 | -0.275 | -1.22 | 0.948
CG4455 | DRSC21684 | 1.14 | 1.43 | –
bic (bicaudal) | DRSC07584 | 2.71 | 1.95 | –
Srp72 (Signal recognition particle 72) | DRSC15800 | – | -0.756 | –
mura (murashka) | DRSC16483 | 1.77 | 0.887 | –
mura (murashka) | DRSC16484 | 1.09 | 0 | –
mura (murashka) | DRSC23145 | -0.261 | 0.0892 | –
CG12133 | DRSC06108 | 0.731 | 0.0421 | –
Ipo9 (Importin 9) | DRSC16813 | -1 | -0.608 | –
Jheh1 (Juvenile hormone epoxide hydrolase 1) | DRSC06529 | -0.0711 | – | –
Taf10b + Taf10 | DRSC00793 | -1.65 | 1.5 | –
CAH4 (Carbonic anhydrase 4) | DRSC22433 | -0.0642 | 1.14 | –
D19B | DRSC11134 | -0.385 | 0.0169 | –
CG13887 | DRSC08357 | 2.12 | 1.2 | –
CG5928 | DRSC18391 | -0.079 | 0.0415 | 2.53
CG17826 | DRSC10289 | -0.885 | -0.125 | –
CG31915 | DRSC03000 | 1.56 | 1.34 | –
Hml (Hemolectin) | DRSC11183 | 1.9 | -0.854 | –
Axs (Abnormal X segregation) | DRSC19333 | 0.211 | 0.0113 | –
CG15753 (retired record) | DRSC19718 | 0.00192 | 0.233 | 2.56
CG15753 (retired record) | DRSC22985 | 2.58 | 1.23 | –
CG31948 | DRSC00740 | 0.00184 | 0.686 | –
PIG-T (Phosphatidylinositol glycan anchor biosynthesis class T) | DRSC17774 | 0.316 | -0.721 | –
CG31221 | DRSC14335 | -1.97 | -0.166 | –
CG31221 | DRSC16217 | 0.0563 | 0.0784 | –
SmF (Small ribonucleoprotein particle protein SmF) | DRSC07397 | -0.46 | -0.238 | –
slim (scruin like at the midline) | DRSC06921 | -1.15 | 0.981 | –
CG13231 | DRSC06351 | -0.719 | 0.717 | –
CG5262 | DRSC11773 | 0.0419 | -4.24 | -0.383

9 entries from above in another layout.
| predicted target | amplicon | droplet/nuclear area B-score, replicate 1 | droplet/nuclear area B-score, replicate 2 | droplet/nuclear area B-score, replicate 3 |
| --- | --- | --- | --- | --- |
| CG13887 | DRSC08357 | 2.12 | 1.2 | – |
| CG5928 | DRSC18391 | -0.079 | 0.0415 | 2.53 |
| CG17826 | DRSC10289 | -0.885 | -0.125 | – |
| CG31915 | DRSC03000 | 1.56 | 1.34 | – |
| Hml (Hemolectin) | DRSC11183 | 1.9 | -0.854 | – |
| Axs (Abnormal X segregation) | DRSC19333 | 0.211 | 0.0113 | – |
| CG15753 (retired record) | DRSC19718 | 0.00192 | 0.233 | 2.56 |
| CG15753 (retired record) | DRSC22985 | 2.58 | 1.23 | – |
| CG31948 | DRSC00740 | 0.00184 | 0.686 | – |

Next records follow.
predicted target | amplicon | droplet/nuclear area B-score, replicate 1 | droplet/nuclear area B-score, replicate 2 | droplet/nuclear area B-score, replicate 3
Hr78 (Hormone-receptor-like in 78) | DRSC11866 | 0.175 | -0.0147 | 0.987
Gnpnat (Glucosamine-phosphate N-acetyltransferase) | DRSC15405 | -0.652 | -0.688 | –
Dpck (Dephospho-CoA kinase) | DRSC12575 | 1.58 | 1.36 | –
CG2006 | DRSC15412 | 2.61 | -1.36 | 0.983
Cyp6v1 (Cytochrome P450 6v1) | DRSC20565 | 1.91 | 1.12 | –
Tmtc1 (Transmembrane O-mannosyltransferase targeting cadherins 1) | DRSC00151 | 0.464 | 1.71 | –
Tmtc1 (Transmembrane O-mannosyltransferase targeting cadherins 1) | DRSC00314 | -2.65 | -1.49 | –
Tmtc1 (Transmembrane O-mannosyltransferase targeting cadherins 1) | DRSC00411 | 1 | 0.602 | –
PpD3 (Protein phosphatase D3) | DRSC16796 | -0.0703 | -0.103 | –
CG31807 | DRSC01550 | 2.02 | 0.863 | –
CecB (Cecropin B) | DRSC16605 | -0.619 | -0.0141 | –
CG12877 | DRSC14565 | 0.0472 | -0.325 | –
CG46298 | DRSC06222 | -0.201 | -0.636 | –
mTTF (mitochondrial transcription termination factor) | DRSC01909 | 2.25 | 2.02 | –
Rab9Db + Rab9Fa | DRSC18445 | -0.707 | 1.41 | -0.616
Ns3 (Nucleostemin 3) | DRSC18607 | -0.0162 | 2.69 | -0.802
neb (nebbish) | DRSC03577 | 0.691 | 0.0616 | –
CG7889 | DRSC20066 | 1.63 | -0.641 | 0.0654
CG33235 | DRSC19641 | -1.46 | -1.93 | 0.0282
CG18746 | DRSC15383 | -0.943 | 0.0393 | –
RyR (Ryanodine receptor) | DRSC07543 | 0.723 | 1.08 | –
CG7252 | DRSC10789 | -0.474 | 0.78 | –
CG7252 | DRSC21492 | -0.631 | -0.651 | –
RpS15 (Ribosomal protein S15) | DRSC07151 | 2.41 | 1.37 | –
RecQ4 (RecQ4 helicase) | DRSC11265 | -0.469 | 1.47 | –
Sr-CIII (Scavenger receptor class C, type III) | DRSC22262 | 1.01 | -0.0401 | –
CG31077 | DRSC13805 | -1.12 | 0.0179 | –
Polr3F (RNA polymerase III subunit F) | DRSC15785 | 0.335 | 2.58 | –
CG7110 | DRSC03011 | -0.476 | 0.103 | –
CG7110 | DRSC03012 | 0.138 | -1.54 | –
CheA75a (Chemosensory protein A 75a) | DRSC10807 | 0.318 | -0.237 | -0.581
iotaTry (iotaTrypsin) | DRSC07634 | 2.3 | -0.0887 | –
CG10477 | DRSC09732 | -0.0825 | -0.0861 | –
GILT2 (Gamma-interferon-inducible lysosomal thiol reductase 2) | DRSC14196 | 0.598 | 0.0181 | –
Aladin | DRSC18121 | 1.13 | 0.185 | 0.08
CG4575 (retired record) | DRSC18372 | 0.843 | -0.231 | –
nsr (novel spermatogenesis regulator) | DRSC04427 | -0.00476 | 1.18 | –
nsr (novel spermatogenesis regulator) | DRSC22806 | -0.219 | -1.55 | –
RpL3 + CG6693 | DRSC16097 | -0.000816 | -0.0197 | –
Naa20A (N(alpha)-acetyltransferase 20 A) | DRSC19579 | 0.441 | -0.143 | –
Ccs (Copper chaperone for superoxide dismutase) | DRSC06692 | 0.45 | 1.19 | –
CG7352 | DRSC16233 | 2.14 | -1.4 | –
PpY-55A (Protein phosphatase Y at 55A) | DRSC07513 | -0.175 | 0.35 | –
PpY-55A (Protein phosphatase Y at 55A) | DRSC23328 | -0.168 | -0.381 | –
CG8012 | DRSC10951 | 1.35 | -1.8 | –
scu (scully) | DRSC20369 | 0.564 | 0.117 | –
Wdfy2 (WD repeat and FYVE domain containing 2) | DRSC02822 | -3.04 | -0.162 | –
Pebp1 (Phosphatidylethanolamine-binding protein 1) | DRSC15354 | 0.618 | -0.177 | –
